Where “and” joins values, the source holds several entries; their conditions need not be identical. Equal entries are not always repeated. The campaign covered roughly 580,000 compounds. About 6,100 (1.1%) were called active. The inconclusive results got no clear call from the source; some entries with a clear call stand among them for comparison. The call rests on the fitted dose curve; in most records, active means well fitted inhibition curve with a large enough effect; inconclusive means small, poorly fitted or top-dose-only effect, or another doubt; inactive means no such curve, though single readings can be large or run the other way. Potencies beside an inconclusive call are fits to weak or partial responses and may not hold up.
target: Polyunsaturated fatty acid lipoxygenase ALOX12 (Homo sapiens) (UniProt P18054); assay: Primary qHTS assay for inhibitors of human arachidonate 12S-lipoxygenase (ALOX12): Round 2; conditions: purified 12hLO, xylenol orange hydroperoxide absorbance; activity change, negative = inhibition: at 108 µM (top of the series) unless noted
Procedure, shortened: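 Purified human 12hLO (150 nM final) in 25 mM Hepes, 0.01% Triton X-100, pH 7.0 was preincubated 15 min at room temperature with compound. Then 40 uM arachidonic acid was added, 30 min. Hydroperoxide was read by Fe-XO absorbance ratio 573/405 nm.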
On the % scale 0 is the no-effect control and ±100 the full control effect; potency means the concentration at half of the fitted maximal effect.

Chains of the proteins cited; added tags and fusions are not shown. Lines headed by an entry give the natural chain unless they say otherwise; changes in a name come on top.
UniProt P18054: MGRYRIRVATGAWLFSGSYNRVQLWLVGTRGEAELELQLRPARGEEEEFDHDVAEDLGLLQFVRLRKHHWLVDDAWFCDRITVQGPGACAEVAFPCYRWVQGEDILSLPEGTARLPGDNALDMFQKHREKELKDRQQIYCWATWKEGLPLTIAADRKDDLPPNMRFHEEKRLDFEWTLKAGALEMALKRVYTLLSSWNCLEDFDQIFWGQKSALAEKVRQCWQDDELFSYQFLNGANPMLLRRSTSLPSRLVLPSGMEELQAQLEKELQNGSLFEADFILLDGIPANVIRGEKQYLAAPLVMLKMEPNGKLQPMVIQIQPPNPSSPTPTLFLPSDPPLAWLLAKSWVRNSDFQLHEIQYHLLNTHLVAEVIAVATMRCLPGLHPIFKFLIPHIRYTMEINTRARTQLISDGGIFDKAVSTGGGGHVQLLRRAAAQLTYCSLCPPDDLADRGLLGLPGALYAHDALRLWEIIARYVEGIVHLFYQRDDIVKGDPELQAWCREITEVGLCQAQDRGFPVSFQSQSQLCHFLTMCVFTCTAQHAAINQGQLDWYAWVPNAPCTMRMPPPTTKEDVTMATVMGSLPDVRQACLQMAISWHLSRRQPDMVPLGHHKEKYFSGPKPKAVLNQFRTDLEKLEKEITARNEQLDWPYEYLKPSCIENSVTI

Row | Compound | Potency | activity change, negative = inhibition
1 | CCc1ccc(O)c(N=Cc2cccc(C)c2O)c1 | inconclusive: 44.7 µM [inhibitor, partial curve, poor fit] | 
2 | COC(=O)c1ccc(N2CCN(C(=O)c3ccccc3)CC2)c(NC(C)=O)c1 | inactive | 
3 | COc1ccc(C2=Cc3ccccc3C(CC(=O)C3CC3)N2c2ccc(C#CCCO)cc2)cc1 (centres undefined) | inconclusive: 8.91 µM [inhibitor, partial curve, poor fit] | 
4 | CCc1noc(C)c1C(=O)Nc1ccccc1C(C)(C)C | inconclusive: 7.94 µM [inhibitor, partial curve, poor fit] | 
5 | C(=N\Nc1nc(N2CCOCC2)nc(N2CCOCC2)n1)/c1cccnc1 | inactive | 
6 | Cc1ccc(Cc2c(-c3ccc(Cl)cc3)nc3c4ccccc4ccn23)cc1 | inconclusive: 5.62 µM [inhibitor, full curve, poor fit] | 
7 | COc1ccc(S(=O)(=O)N2CCN(C(=O)c3ccccc3Cc3ccccc3)CC2)cc1OC | inactive | 
8 | COc1ccc(S(=O)(=O)NCCc2sc(-c3ccccc3)nc2C)cc1F | inactive | 
9 | CN(CCC#N)C(=O)COC(=O)c1c2c(nc3ccccc13)/C(=C/c1ccco1)CC2 | inconclusive: 14.1 µM [inhibitor, partial curve] | 
10 | CCOc1ccccc1C1Nc2ccccc2-n2cc3c(=O)n(C)c(=O)n(C)c3c21 (centres undefined) | inconclusive: 50.1 µM [inhibitor, partial curve, poor fit] | 
11 | O=C(Nc1ccc(NC(=S)NC(=O)c2ccccc2F)cc1)c1cccs1 | inconclusive: 15.8 µM [inhibitor, full curve] | 
12 | c1cc(-c2nsc(-c3ccncc3)n2)ccn1 | inactive | 
13 | COc1ccc(C(NC(=O)c2oc3ccc(F)cc3c2C)c2nccn2C)cc1 (centres undefined) | inactive | 
14 | Cc1cccc(Nc2nc(NC(C)C)nc(Oc3ccc(=O)n(C)n3)n2)c1 | inactive | 
15 | O=[S+]1([O-])NC2(CCN(Cc3c(F)cccc3Cl)C2)COc2ncccc21 (centres undefined) |  | inactive: -5.47% [at 6.33 µM]
16 | O=C([C@@H]1C[C@H](Oc2cccnc2)CN1C(=O)c1nccc2ccccc12)N1CCOCC1 | inactive | 
17 | CCN1CCN(C(=S)NC(=O)c2cccc(Br)c2)CC1 | inconclusive: 35.5 µM [inhibitor, partial curve, poor fit] | 
18 | COc1ccc(S(=O)(=O)N2CCC(CC(=O)NCc3ccccc3)C2)cc1 (centres undefined) | inconclusive: 28.2 µM [inhibitor, full curve] | 
19 | CC(=O)c1c(N2CCN(c3ccc(F)cc3)CC2)nc(=S)n(-c2ccccc2)c1C | active: 44.7 µM | 
20 | CC(C)c1ccc(/C=C/C(=O)NCCC2=CCCCC2)cc1 | active: 39.8 µM | 
21 | Cc1nn(CCC(=O)O)c2nc(-c3cccnc3)cc(C(F)(F)F)c12 | inconclusive: 35.5 µM [inhibitor, partial curve, poor fit] | 
22 | CCc1nc2c(OCc3ccc(F)cc3)cccn2c1N(C)C(=O)c1ccc(C)cc1 | inconclusive: 35.5 µM [inhibitor, partial curve, poor fit] | 
23 | CC(=O)Nc1ccc(Nc2nc(-c3cc4ccccc4oc3=O)cs2)cc1 | inconclusive: 63.1 µM [inhibitor, partial curve, poor fit] | 

Row | Compound | Potency | activity change, negative = inhibition
24 | S=c1[nH]c(-c2ccccc2)cs1 | active: 10 µM and active: 2 µM | 
25 | CCCOC(=O)c1c(NC(=O)C2CCCO2)sc(C(=O)OC)c1C (centres undefined) | inconclusive: 35.5 µM [inhibitor, partial curve, poor fit] | 
26 | COc1cc(C)ccc1OCCOCCOc1cc(C)c(C)cc1Br | inconclusive: 56.2 µM [inhibitor, partial curve, poor fit] | 
27 | Cc1nn(-c2ccccc2Cl)c2sc(C(=O)Nc3nnc(C4CC4)s3)cc12 | inactive | 
28 | Cc1cc(C(C)(C)C)ccc1OCCn1ccnc1 | inconclusive: 0.251 µM [inhibitor, full curve, poor fit] | 
29 | COc1ccc(/C(O)=C2\C(=O)C(=O)N(c3cc(C)on3)C2c2ccccc2OC)cc1 (centres undefined) | inconclusive: 44.7 µM [inhibitor, partial curve, poor fit] | 
30 | NC(=O)c1ccc(-c2nccc(N3CCC(O)CC3)n2)cc1Cl | inconclusive: 39.8 µM [inhibitor, single point] | 
31 | COc1ccc(OC)c(S(=O)(=O)Nc2ccc(C(N)=O)cc2)c1 | inconclusive: 50.1 µM [inhibitor, partial curve, poor fit] | 
32 | CCOc1ccc(-n2ccc(=O)c(C(=O)Nc3cc(C(F)(F)F)ccc3Cl)n2)cc1 | inconclusive: 7.94 µM [inhibitor, full curve, poor fit] | 
33 | CC(C)n1nc(C(=O)OCC(=O)Nc2ccccc2Cl)c2ccccc2c1=O | inactive | 
34 | Cc1ccc(C)c(S(=O)(=O)n2nc(C)c(S(=O)(=O)N3CCC(C)CC3)c2C)c1 | inconclusive: 20 µM [inhibitor, partial curve] | 
35 | Cc1cccc(-n2c(SCC(=O)Nc3cccc(S(=O)(=O)NC4=NCCCCC4)c3)nc3ccccc3c2=O)c1C | inconclusive: 25.1 µM [inhibitor, partial curve, poor fit] | 
36 | C=CCn1c(Cc2cccs2)nnc1SCC(=O)c1ccc(F)cc1 | inconclusive: 79.4 µM [inhibitor, single point] | 
37 | COc1cccc(OC)c1C(=O)OCc1ccccc1Br | inactive | 
38 | Cc1ccsc1C(=O)OCC(=O)NC(=O)NC(C)(C)C | inactive | 
39 | C=CCNc1nc(NCCOc2ccccc2Cl)c2sc(-c3ccccc3)cc2n1 | inconclusive: 44.7 µM [inhibitor, partial curve, poor fit] | 
40 | CCCCCCn1c(=O)n2n(c1=O)C[C@]1(OC(=O)NCc3ccccc3F)CN(S(=O)(=O)c3ccc(C)cc3)C[C@]1(O)C2 | inconclusive: 70.8 µM [inhibitor, single point] | 
41 | COc1ccc(CC(N)c2csc(NC(=O)Nc3cc(OC)ccc3OC)n2)cc1 (centres undefined) | inconclusive: 70.8 µM [inhibitor, partial curve, poor fit] | 
42 | COCCN(Cc1cc2ccccc2[nH]c1=O)C(=O)c1cc(OC)cc(OC)c1 | inactive | 
43 | CC(C)CCNC(=S)Nc1cccc(Cl)c1 | inconclusive: 44.7 µM [inhibitor, partial curve, poor fit] | 
44 | CC(/C=C/c1ccccc1)=N\NC(=S)NC(C)C | inconclusive: 50.1 µM [inhibitor, partial curve, poor fit] | 
45 | N#Cc1ccc(OCC(=O)NOCc2ccccc2)cc1 | inconclusive: 112 µM [inhibitor, single point] | 
46 | CN1CCN(C(=S)c2cn(Cc3ccc(F)cc3)c3ccccc23)CC1 | inactive | 

Row | Compound | Potency | activity change, negative = inhibition
47 | CCC(CO)NS(=O)(=O)c1cc(-c2n[nH]c(=O)c3ccccc23)ccc1C (centres undefined) | inactive | 
48 | CCC(=O)N1N=C(c2ccc(C)o2)CC1c1ccc(OC)cc1 (centres undefined) | inactive | 
49 | Cc1csc(CNc2ncnc3ccc(-c4ccc5c(c4)OCCO5)cc23)c1 | active: 8.91 µM | 
50 | O=C(Cn1cc(COc2cccc([N+](=O)[O-])c2)nn1)c1ccc(O)cc1 | inconclusive: 3.55 µM [inhibitor, full curve] | 
51 | CN(C)C(=O)c1ccc(-c2cncnc2NCc2cccs2)cc1 | inactive | 
52 | C[N+]1(CC#CC(O)(c2ccccc2)c2ccccc2)CCCC1 | inconclusive: 25.1 µM [inhibitor, partial curve, poor fit] | 
53 | Cc1ccc(NCC(=O)N2CCN(S(=O)(=O)c3ccc4ccccc4c3)CC2)cc1F | inactive | 
54 | O=C(Cc1coc(-c2ccccc2)n1)NCCN(C(=O)Cc1coc(-c2ccccc2)n1)C1CC1 | inconclusive: 3.55 µM [inhibitor, full curve, poor fit] | 
55 | O=C(O)c1ccc(C2CCCN(C(=O)CCN3CCOCC3)C2)cc1 (centres undefined) | inactive | 
56 | CN1C(=O)CC(C(=O)O)C12CCN(C(=O)C1(c3ccccc3)CC1)CC2 (centres undefined) | inconclusive: 7.94 µM [inhibitor, full curve, poor fit] | 
57 | O=C(/C=C/c1cn(-c2ccccc2)nc1-c1ccccc1)Nc1ccc(C(=O)O)cc1 | inactive | 
58 | Cc1cc(C)c(-c2csc(NC(=O)CCCc3nc4ccccc4c(=O)[nH]3)n2)c(C)c1 | inconclusive: 89.1 µM [inhibitor, single point] | 
59 | Cc1ccc(C)c(CS(=O)(=O)c2cn(CC(=O)N3CCC(C)CC3)c3ccccc23)c1 | inactive | 
60 | O=C(O)c1cccc(-n2cccc2/C=C2/NC(=O)N(Cc3ccccc3F)C2=O)c1 | inconclusive: 44.7 µM [inhibitor, partial curve, poor fit] | 
61 | CN(C)C[C@@H]1CN(c2ccncn2)C[C@H]1NC(=O)c1ccc2ccccc2n1 | inactive | 
62 | COc1ccc2cc(C(=O)NCC(C)C)c(C)nc2c1 | inactive | 
63 | O=C(Nc1ccc2c(c1)CCC2)c1cccs1 | inconclusive: 100 µM [inhibitor, single point] | 
64 | CC(Oc1ccc(F)cc1)C(=O)N(CCC1=CCCCC1)c1c(N)n(Cc2ccccc2)c(=O)[nH]c1=O (centres undefined) | inactive | 
65 | Cc1cccc(OCC(=O)OC(C)C(=O)Nc2ccc(Cl)cn2)c1 (centres undefined) | inconclusive: 89.1 µM [inhibitor, partial curve, poor fit] | 
66 | CCOc1cccc(CNCc2ccc(C(=O)O)cc2)c1 | inconclusive: 25.1 µM [inhibitor, partial curve, poor fit] | 
67 | Cc1ccc(S(=O)(=O)NCC(C)NS(=O)(=O)c2ccc(C)cc2)cc1 (centres undefined) | inactive | 
68 | COc1ccc(/C(O)=C2/C(=O)C(=O)N(c3ncccn3)C2c2ccc(OC)c(OC)c2)cc1 (centres undefined) | inconclusive: 14.1 µM [inhibitor, full curve, poor fit] | 
69 | CCOc1cc(CNCCN(C)C)c(Cl)cc1OCC(=O)NCCc1ccccc1 | inconclusive: 50.1 µM [inhibitor, partial curve, poor fit] | 

Four of the compounds above, as a markdown table.

| Row | Compound | Potency | activity change, negative = inhibition |
| --- | --- | --- | --- |
| 35 | Cc1cccc(-n2c(SCC(=O)Nc3cccc(S(=O)(=O)NC4=NCCCCC4)c3)nc3ccccc3c2=O)c1C | inconclusive: 25.1 µM [inhibitor, partial curve, poor fit] |  |
| 50 | O=C(Cn1cc(COc2cccc([N+](=O)[O-])c2)nn1)c1ccc(O)cc1 | inconclusive: 3.55 µM [inhibitor, full curve] |  |
| 65 | Cc1cccc(OCC(=O)OC(C)C(=O)Nc2ccc(Cl)cn2)c1 (centres undefined) | inconclusive: 89.1 µM [inhibitor, partial curve, poor fit] |  |
| 68 | COc1ccc(/C(O)=C2/C(=O)C(=O)N(c3ncccn3)C2c2ccc(OC)c(OC)c2)cc1 (centres undefined) | inconclusive: 14.1 µM [inhibitor, full curve, poor fit] |  |
